The values below come from paper doi:10.1101/2020.08.04.236182.

No constants are given. Whether binding was seen depends on the method and setting. In cells and extracts the contact can be indirect. Some binding calls cover weakened binding; strength is not graded here.

The target of the test is GRB2 (human (endogenous in HUVEC)), P62993. The test can be described thus: co-IP. The settings on record: remark: other sources report otherwise.

B1: caveolin-1 (Cav1), Q03135 1-178 (protein)
chain: MSGGKYVDSEGHLYTVPIREQGNIYKPNNKAMADELSEKQVYDAHTKEIDLVNRDPKHLNDDVVKIDFEDVIAEPEGTHSFDGIWKASFTTFTVTKYWFYRLLSALFGIPMALIWGIYFAILSFLHIWAVVPCIKSFLIEIQCISRVYSIYVHTVCDPLFEAVGKIFSNVRINLQKEI
Take B1: the binding result is recorded as “binds”.
